For this assay, the target named is tetraspanin 15 (TSPAN15) (human (endogenous in KYSE30)), O95858. Briefly: affinity purification with mass spectrometry; anti-TSPAN15 antibody incubated with protein extracts from KYSE30 cells, protein A/G agarose beads; band specific against IgG control excised from the gel and identified by mass spectrometry. The conditions noted are these: remark: other sources report otherwise.

Results are given in words; binding and its absence hold for the method and conditions named. Binding seen in cells or lysates may run through a third protein. These calls come from enrichment with a bait or labelling near it, and not all partners need be listed.

B1: beta-transducin repeat containing E3 ubiquitin protein ligase (BTRC), Q9Y297 1-605 (protein)
chain: MDPAEAVLQEKALKFMCSMPRSLWLGCSSLADSMPSLRCLYNPGTGALTAFQNSSEREDCNNGEPPRKIIPEKNSLRQTYNSCARLCLNQETVCLASTAMKTENCVAKTKLANGTSSMIVPKQRKLSASYEKEKELCVKYFEQWSESDQVEFVEHLISQMCHYQHGHINSYLKPMLQRDFITALPARGLDHIAENILSYLDAKSLCAAELVCKEWYRVTSDGMLWKKLIERMVRTDSLWRGLAERRGWGQYLFKNKPPDGNAPPNSFYRALYPKIIQDIETIESNWRCGRHSLQRIHCRSETSKGVYCLQYDDQKIVSGLRDNTIKIWDKNTLECKRILTGHTGSVLCLQYDERVIITGSSDSTVRVWDVNTGEMLNTLIHHCEAVLHLRFNNGMMVTCSKDRSIAVWDMASPTDITLRRVLVGHRAAVNVVDFDDKYIVSASGDRTIKVWNTSTCEFVRTLNGHKRGIACLQYRDRLVVSGSSDNTIRLWDIECGACLRVLEGHEELVRCIRFDNKRIVSGAYDGKIKVWDLVAALDPRAPAGTLCLRTLVEHSGRVFRLQFDEFQIVSSSHDDTILIWDFLNDPAAQAEPPRSPSRTYTYISR
For B1, the binding result is “binds”.

(Values after PMC5897412.)
